Measured values as given in patent US20100021918A1, “METHOD FOR ASSAYING ACTION OF ANTITUMOR AGENT USING SPLICING DEFECTS AS INDEX” (Eisai R&D Management Co., Ltd., priority 2007, published 2010).
This continues a long series; more values of the same kind are listed elsewhere.

Test system: human colon carcinoma cell strain WiDr
Experiment: Microarray analysis (2), reviewed conditions, intron expression, Table 3
Format: cell-based
Method: WiDr cells were first suspended in RPMI1640 medium (containing 10% FBS, penicillin, and streptomycin) and seeded in a 10 cm dish (2×10^6 cells/dish). After an overnight culture in an incubator with 5% carbon dioxide gas at 37° C., the medium was changed with medium containing 14 nM of (8E,12E,14E)-7-((4-cycloheptylpiperazin-1-yl)carbonyl)oxy-3,6,16,21-tetrahydroxy-6,10,12,16,20-pentamethyl-18,19-epoxytricosa-8,12,14-trien-11-olide or containing vehicle alone. After cultured for additional six hours, TRI reagent (SIGMA) were added to the cells and the cells were harvested. RNA was purified in accordance with the protocol of TRI reagent, followed by further purification with RNeasy (QIAGEN). Absorbance at 260 nm was measured to quantify an amount of RNA. This experiment was repeated three times and RNA samples (n=3) were prepared.
Ribosomal RNA was removed from 1 μg of each total RNA of control cells (n=3) and cells with the treatment (n=3) by using RiboMinus Human/Mouse Transcriptome Isolation Kit (Invitrogen). Single stranded cDNA synthesis, double stranded cDNA synthesis, cRNA synthesis, second single stranded cDNA synthesis, cDNA fragmentation, and cDNA labeling in order were carried out for the total RNA from which ribosomal RNA was removed, by using GeneChip Whole Transcript Sense Target Labeling and Control Reagents (Affymetrix) to make a cDNA probe. The cDNA probe was used for hybridization with Human Exon 1.0 ST Array (Affymetrix). The array was washed and stained, and luminescence intensity was measured by a scanner.
Analysis conditions were reviewed in the data used in Example 3. Genes containing increased introns upon treatment with (8E,12E,14E)-7-((4-cycloheptylpiperazin-1-yl)carbonyl)oxy-3,6,16,21-tetrahydroxy-6,10,12,16,20-pentamethyl-18,19-epoxytricosa-8,12,14-trien-11-olide were identified.
In order to consider the analysis conditions, variations in the data from the samples with identical conditions were studied. […] It turned out that, by analyzing under conditions where the expression level was more than 100 and change in the expression level was more than five times, a probe set with increased expression can be extracted.
Probe sets showing that the normalized change in the level expression of the probe set in the group with the treatment was more than 5 times; the expression level of the probe set and the gene in the group with the treatment were more than 100; and probe set annotation was “extended, full, free”, were picked out. Welch's t-test was conducted with the probe sets extracted for the treated group and the control group to determine a p and q value. A gene containing the probe sets with the q value of less than 5% was determined as a candidate gene with increased expression level of the intron regions (Table 3).
In Table 3, for each gene evaluated, gene name (Gene Name), abbreviated name (Gene Symbol), accession number (Accession), alias name (Synonym), transcription cluster number in Human Exon 1.0 ST Array (Human Exon 1.0 ST Array Transcript Cluster ID), chromosome number (Chromosome), type of strand (Strand), start region (Start), stop region (Stop), and change in expression level (Fold Change) were respectively shown.

SMILES: CCC(O)C(C)C1OC1CC(C)(O)/C=C/C=C(\C)C1OC(=O)CC(O)CCC(C)(O)C(OC(=O)N2CCN(C3CCCCCC3)CC2)/C=C/C1C (centres unmarked) [E7107, (8E,12E,14E)-7-((4-cycloheptylpiperazin-1-yl)carbonyl)oxy-3,6,16,21-tetrahydroxy-6,10,12,16,20-pentamethyl-18,19-epoxytricosa-8,12,14-trien-11-olide]
- Fold Change (gene DUSP6, Transcript Cluster ID 3464860, intron expression, treated vs control): 9.31
- Fold Change (gene DUSP14, Transcript Cluster ID 3719515, intron expression, treated vs control): 9.97
- Fold Change (gene DYNC1LI2, Transcript Cluster ID 3695199): 5.36
- Fold Change (gene ECD, Transcript Cluster ID 3294242): 5.29
- Fold Change (gene EDD1, change in expression level, treated vs control): 5.97
- Fold Change (gene EEF2, change in expression level, treated vs control): 11.73
- Fold Change (gene EHD1, change in expression level, treated vs control): 6.26
- Fold Change (gene EHD4, intron expression, treated vs control): 6.75
- Fold Change (gene EIF1AX // EIF1AP1, intron expression, treated vs control): 6.71
- Fold Change (gene EIF2A, Transcript Cluster ID 2647742): 5.27
- Fold Change (gene EIF2C2, Transcript Cluster ID 3156193, intron expression, treated vs control): 9.74
- Fold Change (gene EIF2S1, change in expression level, treated vs control): 6.30
- Fold Change (gene EIF4A1 // SENP3, Transcript Cluster ID 3708826, intron expression, treated vs control): 9.46
- Fold Change (gene EIF4E, change in expression level, treated vs control): 6.30
- Fold Change (gene EIF4G1, change in expression level, treated vs control): 12.13
- Fold Change (gene EIF5, Transcript Cluster ID 3553607, intron expression, treated vs control): 10.00
- Fold Change (gene EIF5A, intron expression, treated vs control): 7.42
- Fold Change (gene ELAVL1 // TIMM44, intron expression, treated vs control): 6.93
- Fold Change (gene ELF1, intron expression, treated vs control): 7.32
- Fold Change (gene ELL2, change in expression level, treated vs control): 5.99
- Fold Change (gene EML4, Transcript Cluster ID 2478748): 5.06
- Fold Change (gene EMP1, change in expression level, treated vs control): 5.95
- Fold Change (gene EPHA2, change in expression level, treated vs control): 11.54
- Fold Change (gene EPS8, change in expression level, treated vs control): 6.23
- Fold Change (gene EPS8L1, intron expression, treated vs control): 6.74
- Fold Change (gene ERBB2IP // CASP6, change in expression level, treated vs control): 13.87
- Fold Change (gene EREG, Transcript Cluster ID 2731513, intron expression, treated vs control): 9.62
- Fold Change (gene ERH, Transcript Cluster ID 3570049): 5.35
- Fold Change (gene ERRFI1, intron expression, treated vs control): 6.62
- Fold Change (gene ETS2, change in expression level, treated vs control): 6.06
- Fold Change (gene EWSR1, intron expression, treated vs control): 7.19
- Fold Change (gene EXOSC2, Transcript Cluster ID 3191695, intron expression, treated vs control): 10.83
- Fold Change (gene EXOSC4, Transcript Cluster ID 3120008, intron expression, treated vs control): 10.30
- Fold Change (gene EXOSC9, change in expression level, treated vs control): 11.79
- Fold Change (gene EXT1, Transcript Cluster ID 3150060): 5.46
- Fold Change (gene EZH2, change in expression level, treated vs control): 6.25
- Fold Change (gene FAM89B, Transcript Cluster ID 3335338): 5.10
- Fold Change (gene FAM104A, change in expression level, treated vs control): 6.41
- Fold Change (gene FAT, intron expression, treated vs control): 7.05
- Fold Change (gene FHL2, intron expression, treated vs control): 6.96
- Fold Change (gene FLJ11171, Transcript Cluster ID 3697563): 5.34
- Fold Change (gene FLJ12529, change in expression level, treated vs control): 6.48
- Fold Change (gene FLJ14154, change in expression level, treated vs control): 6.04
- Fold Change (gene FLOT1, change in expression level, treated vs control): 6.38
- Fold Change (gene FMR1, change in expression level, treated vs control): 5.96
- Fold Change (gene FNBP4, Transcript Cluster ID 3372459): 5.39
- Fold Change (gene FNDC3B, intron expression, treated vs control): 7.33
- Fold Change (gene FOXJ3, intron expression, treated vs control): 7.05
- Fold Change (gene FOXK2, change in expression level, treated vs control): 14.01
- Fold Change (gene FOXO1A, Transcript Cluster ID 3510858, intron expression, treated vs control): 10.41
- Fold Change (gene FRMD5, Transcript Cluster ID 3621728): 5.39
- Fold Change (gene FTHL7 // FTH1 // FTHL3 // FTHP1 // FTHL12 // FTHL11 // FTHL8, change in expression level, treated vs control): 6.16
- Fold Change (gene FUBP1, change in expression level, treated vs control): 16.59
- Fold Change (gene FUS, intron expression, treated vs control): 6.82
- Fold Change (gene FUSIP1, change in expression level, treated vs control): 5.93
- Fold Change (gene GAB1, intron expression, treated vs control): 7.00
- Fold Change (gene GAK, intron expression, treated vs control): 7.00
- Fold Change (gene GBF1, change in expression level, treated vs control): 17.47
- Fold Change (gene GCLC, change in expression level, treated vs control): 6.12
- Fold Change (gene GCNT3, change in expression level, treated vs control): 5.98
- Fold Change (gene GDI2, change in expression level, treated vs control): 6.03
- Fold Change (gene GEMIN5, change in expression level, treated vs control): 6.30
- Fold Change (gene GMNN, intron expression, treated vs control): 7.06
- Fold Change (gene GNAS, Transcript Cluster ID 3891163, intron expression, treated vs control): 9.04
- Fold Change (gene GNB2L1, Transcript Cluster ID 2891052, intron expression, treated vs control): 9.38
- Fold Change (gene GNL2, change in expression level, treated vs control): 12.14
- Fold Change (gene GNL3, Transcript Cluster ID 2624074, intron expression, treated vs control): 9.00
- Fold Change (gene GOLPH4, intron expression, treated vs control): 7.07
- Fold Change (gene GOPC // ROS1, Transcript Cluster ID 2971378, intron expression, treated vs control): 10.49
- Fold Change (gene GORASP2 // DHRS9, change in expression level, treated vs control): 6.27
- Fold Change (gene GOSR1, Transcript Cluster ID 3716481): 5.40
- Fold Change (gene GPBP1, intron expression, treated vs control): 6.55
- Fold Change (gene GPBP1L1, intron expression, treated vs control): 6.94
- Fold Change (gene GPR126, Transcript Cluster ID 2928461, intron expression, treated vs control): 10.05
- Fold Change (gene GPRC5A, change in expression level, treated vs control): 5.96
- Fold Change (gene GRHL2, Transcript Cluster ID 3109687): 5.29
- Fold Change (gene GRPEL2, change in expression level, treated vs control): 11.03
- Fold Change (gene GRWD1, intron expression, treated vs control): 6.95
- Fold Change (gene GSK3B, change in expression level, treated vs control): 6.05
- Fold Change (gene GTF2F2, intron expression, treated vs control): 6.60
- Fold Change (gene GTF3C4, Transcript Cluster ID 3192525, intron expression, treated vs control): 10.00
- Fold Change (gene HAT1, Transcript Cluster ID 2515369): 5.26
- Fold Change (gene HELZ, intron expression, treated vs control): 7.08
- Fold Change (gene HERPUD1, change in expression level, treated vs control): 19.03
- Fold Change (gene HGS, Transcript Cluster ID 3738138): 5.08
- Fold Change (gene HIATL1, intron expression, treated vs control): 7.43
- Fold Change (gene HIF1A, Transcript Cluster ID 3539070): 5.38
- Fold Change (gene HMBS, change in expression level, treated vs control): 6.30
- Fold Change (gene HMGCR, change in expression level, treated vs control): 13.12
- Fold Change (gene HMGCS1, Transcript Cluster ID 2855501, intron expression, treated vs control): 10.19
- Fold Change (gene HMGN1, change in expression level, treated vs control): 11.92
- Fold Change (gene HNRPD, Transcript Cluster ID 2775463, intron expression, treated vs control): 9.50
- Fold Change (gene HNRPK, intron expression, treated vs control): 7.45
- Fold Change (gene HNRPL, intron expression, treated vs control): 7.45
- Fold Change (gene HNRPM, Transcript Cluster ID 3819543, intron expression, treated vs control): 10.37
- Fold Change (gene HNRPR, intron expression, treated vs control): 6.84
- Fold Change (gene HNRPUL1, Transcript Cluster ID 3834089): 5.22
- Fold Change (gene HRB, change in expression level, treated vs control): 6.43
- Fold Change (gene HSP90AB1, intron expression, treated vs control): 6.93
- Fold Change (gene HSP90B1 // TDG // HSP90B2P, Transcript Cluster ID 3429312, intron expression, treated vs control): 9.34
- Fold Change (gene HSPA5, change in expression level, treated vs control): 11.27
- Fold Change (gene HSPA8 // FCGR3B, change in expression level, treated vs control): 6.33
- Fold Change (gene HSPC148, change in expression level, treated vs control): 6.26
- Fold Change (gene HSPH1, Transcript Cluster ID 3508330, intron expression, treated vs control): 9.68
